# Laboratory results reported in PubChem BioAssay AID588590 (National Center for Advancing Translational Sciences (NCATS), 2011).
# Amino acid sequences for entries named in this document (tags omitted). A change or cut given only in a name is not applied to a line headed by its entry.
# UniProt Q9UNA4: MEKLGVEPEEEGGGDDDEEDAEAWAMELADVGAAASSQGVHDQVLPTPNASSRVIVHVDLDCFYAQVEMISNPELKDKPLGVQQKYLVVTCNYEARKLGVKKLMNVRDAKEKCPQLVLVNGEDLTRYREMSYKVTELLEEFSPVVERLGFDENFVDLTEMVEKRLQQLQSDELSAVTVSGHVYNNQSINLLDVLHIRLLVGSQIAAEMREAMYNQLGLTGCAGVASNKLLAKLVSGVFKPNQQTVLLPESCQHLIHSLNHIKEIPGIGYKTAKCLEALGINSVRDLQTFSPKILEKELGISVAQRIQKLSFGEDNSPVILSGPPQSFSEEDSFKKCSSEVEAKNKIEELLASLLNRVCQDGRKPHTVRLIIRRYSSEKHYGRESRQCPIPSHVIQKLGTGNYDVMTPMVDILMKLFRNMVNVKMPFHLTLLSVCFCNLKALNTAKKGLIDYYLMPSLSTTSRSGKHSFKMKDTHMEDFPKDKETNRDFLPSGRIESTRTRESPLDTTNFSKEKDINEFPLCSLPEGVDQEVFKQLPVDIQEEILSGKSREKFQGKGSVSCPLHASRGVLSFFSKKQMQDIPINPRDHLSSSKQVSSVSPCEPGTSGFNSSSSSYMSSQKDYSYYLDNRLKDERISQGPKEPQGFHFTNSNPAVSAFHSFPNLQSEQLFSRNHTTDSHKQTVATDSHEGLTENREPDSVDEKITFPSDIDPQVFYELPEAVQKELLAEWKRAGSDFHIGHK
# Values joined by “and” are separate entries in the source; they are usually repeats but may differ in a detail not shown here. Equal entries are not always repeated. About 4,000 (1%) of roughly 390,000 compounds were called active. Inconclusive means that the source gave no clear call. Such entries were picked first, then a sample of the others. Calls come from the whole dose curve; as a rule, active = well fitted inhibition curve with a large enough effect; inconclusive = small, poorly fitted or top-dose-only effect, or another doubt; inactive = no such curve, though single readings can be large or run the other way. Where the call is inconclusive, the potency comes from a doubtful curve fit.
# Molecular target: DNA polymerase iota (Homo sapiens) (UniProt Q9UNA4)
# Test: qHTS for Inhibitors of Polymerase Iota
# Details: Pol iota fluorescent replication assay, 10 min; series mostly up to 115 µM; activity, negative = inhibition: at the top concentration
# In short: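 Fluorescent replication assay read twice, at 0 min and 10 min after adding 50 nM (final) substrate. Enzyme (10 nM) and compounds were first incubated 15 min at room temperature; enzyme-free buffer wells were negative controls.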
# Potency is the fitted concentration of half-maximal effect.
SMILES,Potency,"activity, negative = inhibition"
C/C(CC(=O)Nc1ccccn1)=N\NC(=O)Cc1cccc2ccccc12,"inconclusive: 3.16 µM [inhibitor, full curve, poor fit]",
c1ccc(-c2ccc(C(c3ccccc3)n3ccnc3)cc2)cc1 (stereo unspecified),"inconclusive: 11.2 µM [inhibitor, partial curve, poor fit]",
COc1cc2c(cc1O)CC[n+]1cc3c(OC)c(OC)ccc3cc1-2,"inconclusive: 20 µM [inhibitor, partial curve, poor fit]",
O=c1cc(C2CCNCC2)[nH][nH]1,active: 0.891 µM,
CN1CCc2cc(O)cc3c2[C@H]1Cc1ccc(O)c(O)c1-3,,inactive: -20.3%
c1ccc(N2CCN(c3ncnc4c3nc3n4CCCC3)CC2)cc1,"inconclusive: 89.1 µM [inhibitor, partial curve, poor fit]",
CCN(CC)c1ccc(C=C2C(=O)NC(=S)NC2=O)cc1,,inactive: 13.3%
COc1ccc(C(=O)Oc2cccc3cccnc23)cc1S(=O)(=O)N1CCOCC1,"inconclusive: 17.8 µM [inhibitor, partial curve, poor fit]",
C=CCc1cc(C=C2C(=O)N(C)C(=O)N(C)C2=O)cc(OCC)c1OCc1ccccc1,,inactive: -18.4%
CC[n+]1c(/C=C/N(C)c2ccccc2)sc2ccc(Cl)cc21,"inconclusive: 39.8 µM [inhibitor, partial curve, poor fit]",
CNC(C(=O)c1ccccc1)C(OC)c1ccccc1 (stereo unspecified),"inconclusive: 22.4 µM [inhibitor, partial curve, poor fit]",
Cc1cccc(N2C(=O)/C(=C/c3ccc(N4CCN(C)CC4)o3)C(=O)NC2=S)c1C,"inconclusive: 15.8 µM [inhibitor, full curve, poor fit]",
O=c1[nH]c(=O)n(Cc2ccco2)c(O)c1/C=N/N1CCCCC1,"inconclusive: 15.8 µM [inhibitor, full curve, poor fit]",
C=C1C(=O)OC2CC(C)C3C=CC(=O)C3(C)C(O)C12 (stereo unspecified),"inconclusive: 22.4 µM [inhibitor, full curve, poor fit]",
CC1(C)c2[nH]c3ccccc3c2C[C@@H]2C(=O)N(Cc3ccccc3F)C(=O)N21,,inactive: -13.2%
CC(C)COc1ccc(Cc2c(O)[nH]c(=S)[nH]c2=O)cc1,,inactive: 101%
CCC(=O)Nc1cc(C(=O)O)ccc1S(=O)(=O)c1ccc(C)cc1,"inconclusive: 3.55 µM [inhibitor, full curve, poor fit]",
COc1ccccc1-n1c(/C=C/c2ccccc2)nc2ccccc2c1=O,"inconclusive: 89.1 µM [inhibitor, single point]",
CN1C(=O)/C(=C/c2ccc(Cl)s2)C(=O)NC1=S,"inconclusive: 35.5 µM [inhibitor, partial curve, poor fit]",
CN(C)CC(C(=O)Cc1ccccc1)c1ccccc1 (stereo unspecified),"inconclusive: 17.8 µM [inhibitor, partial curve, poor fit]",
COc1ccc(OC)c(N2C(=O)CC(=O)NC2=O)c1,"inconclusive: 39.8 µM [inhibitor, single point]",

# Gathered by group, those above with an aryl methoxy group
SMILES,Potency,"activity, negative = inhibition"
COc1cc2c(cc1O)CC[n+]1cc3c(OC)c(OC)ccc3cc1-2,"inconclusive: 20 µM [inhibitor, partial curve, poor fit]",
COc1ccc(C(=O)Oc2cccc3cccnc23)cc1S(=O)(=O)N1CCOCC1,"inconclusive: 17.8 µM [inhibitor, partial curve, poor fit]",
COc1ccccc1-n1c(/C=C/c2ccccc2)nc2ccccc2c1=O,"inconclusive: 89.1 µM [inhibitor, single point]",
COc1ccc(OC)c(N2C(=O)CC(=O)NC2=O)c1,"inconclusive: 39.8 µM [inhibitor, single point]",

# Carrying on.

SMILES,Potency,"activity, negative = inhibition"
CC(c1nccs1)N(C)C(=O)c1cn(Cc2cccc3ccccc23)nn1 (stereo unspecified),,inactive: 38%
C=C(C=O)C[C@@H]1C[C@H](O)C2OC3C[C@]4(C)OC5/C=C\CC6OC7C(CC=CCC6OC5CCCC4OC3CC2O1)OC1CC2OC3CC(=O)OC3C[C@@H](C)C[C@@]2(C)OC1C[C@@H]7C (stereo partly specified),"inconclusive: 10 µM [inhibitor, partial curve, poor fit]",
COc1ccc(-n2c(=S)[nH]c3c(sc(=S)n3-c3ccccc3)c2=O)c(OC)c1,"inconclusive: 15.8 µM [inhibitor, full curve]",
O=[N+]([O-])c1ccc(CN2CC=C(c3ccccc3)CC2)cc1,"inconclusive: 100 µM [inhibitor, partial curve, poor fit]",
Nn1c(CSc2nc3ccccc3o2)nnc1CSc1nc2ccccc2o1,"inconclusive: 44.7 µM [inhibitor, single point]",
CN1C(=O)C(=Cc2ccccc2OCc2ccc(Cl)cc2)C(=O)N(C)C1=O,,inactive: 55.1%
COc1cc(/C=C2\C[C@H]3[C@@H]4CC=C5C[C@@H](N6CCCC6)CC[C@]5(C)[C@H]4CC[C@]3(C)[C@H]2O)cc(OC)c1OC,,inactive: -1.94%
Cc1cc(/C=C2/C(=O)NC(=O)N(Cc3ccco3)C2=O)c(C)n1-c1ccccc1O,active: 44.7 µM,
O=C1NC(=O)N(Cc2ccccc2)C(=O)/C1=C/N1CCCc2ccccc21,"inconclusive: 35.5 µM [inhibitor, partial curve, poor fit]",
O=Nc1c(O)c2ccccc2c2ccccc12,"inconclusive: 25.1 µM [inhibitor, full curve, poor fit]",
CC(C)n1c(O)c(C=NCc2ccccc2)c(=O)[nH]c1=S,"inconclusive: 20 µM [inhibitor, partial curve, poor fit]",
CC1(C)OC(c2ccccc2)=C/C(=C/C=C2C(=O)NC(=O)NC2=O)O1,"inconclusive: 39.8 µM [inhibitor, partial curve, poor fit]",
CC(C)c1ccc(NC(=O)N2C[C@H]3C[C@@H](C2)c2cccc(=O)n2C3)cc1,,inactive: 23.5%
COc1cc2cc(C(=O)N3CC(COS(C)(=O)=O)c4ccc(O)cc43)[nH]c2c(OC)c1OC (stereo unspecified),active: 1.78 µM,
COc1ccc(C(=O)CC2C(=O)N(C)C(=O)N(C)C2=O)cc1,"inconclusive: 11.2 µM [inhibitor, partial curve, poor fit]",
NC(=O)Cn1cc(C=C2C(=O)NC(=O)NC2=O)c2ccccc21,"inconclusive: 10 µM [inhibitor, partial curve]",
CC1=NN(c2ccccc2)C(=O)C1/C=C1\C(=O)NC(=O)N(c2cc(C)cc(C)c2)C1=O (stereo unspecified),"inconclusive: 3.16 µM [inhibitor, full curve, poor fit]",
O=C(/C=C/c1c[nH]c2ccccc12)c1c(O)n(CCc2ccccc2)c(=O)[nH]c1=O,,inactive: 9.71%
CC1=CC(=Cc2sc3ccccc3[n+]2C)C=C(C)O1,"inconclusive: 17.8 µM [inhibitor, full curve, poor fit]",
Cc1ccc(/C=C2/C(=O)NC(=O)N(CC3CCCO3)C2=O)s1 (stereo unspecified),"inconclusive: 15.8 µM [inhibitor, partial curve, poor fit]",
CCOC(=O)c1c(C=O)c2ccccc2n1Cc1ccccc1F,"inconclusive: 89.1 µM [inhibitor, single point]",

SMILES,Potency,"activity, negative = inhibition"
CCOc1cc(/C=C2\C(=O)NC(=O)N(C)C2=O)cc([N+](=O)[O-])c1O,"inconclusive: 25.1 µM [inhibitor, single point]",
O=C1CC(=O)N(c2ccccc2)C(=O)N1c1ccccc1,"inconclusive: 39.8 µM [inhibitor, single point]",
CC(C)c1ccc(NC(=O)C2CCC(CNS(=O)(=O)c3ccc4c(c3)CCCC(=O)N4)CC2)cc1 (stereo unspecified),"inconclusive: 89.1 µM [inhibitor, partial curve, poor fit]",
COc1ccc(CNC(=O)C(NC(C)=O)C(C)C)cc1OC (stereo unspecified),,inactive: 30%
Cc1c(C(c2ccc(O)cc2)c2c(O)c3ccccc3oc2=O)c(=O)n(-c2ccccc2)n1C (stereo unspecified),"inconclusive: 79.4 µM [inhibitor, single point]",
CCNC(=O)O/N=C(\C)c1sc(-c2ccccc2)nc1C,"inconclusive: 4.47 µM [inhibitor, full curve, poor fit]",
CCCCOCCCn1c(N)c(C(=O)OC(C)COC)c2nc3ccccc3nc21 (stereo unspecified),"inconclusive: 15.8 µM [inhibitor, partial curve]",
COc1ccc2oc3c(c2c1)NC(=O)CN=C3c1ccccc1,,inactive: 15.2%
CN1/C(=C\C=Nc2ccccc2)C(C)(C)c2ccccc21,"inconclusive: 8.91 µM [inhibitor, full curve, poor fit]",
COC(=O)C1=C(c2ccc(Cl)c(C(F)(F)F)c2)C[C@@H]2CC[C@H]1N2C(=O)NCCOc1ccccc1Cl,"inconclusive: 2.82 µM [inhibitor, full curve, poor fit]",
CCOC(=O)CC(SP1(=S)OCC2(CCCCC2)CO1)C(=O)OCC (stereo unspecified),"inconclusive: 56.2 µM [inhibitor, partial curve, poor fit]",
NC(N)=Nc1ccc2[nH]c3c(c2c1)C[C@@]1(O)[C@H]2Cc4ccc(O)c5c4[C@@]1(CCN2CC1CC1)[C@H]3O5,"inconclusive: 12.6 µM [inhibitor, partial curve] and inconclusive: 10 µM [inhibitor, partial curve, poor fit]",
O=c1c2ccccc2nc(/C=C\c2cccc(Br)c2)n1-c1ccc(O)cc1,"inconclusive: 89.1 µM [inhibitor, single point]",
CCn1cc(C=C2C(=O)NC(=O)NC2=O)c2ccccc21,active: 20 µM,
CN1CCN2c3ccc(N)cc3CC3(C(=O)NC(=O)NC3=O)C2C1 (stereo unspecified),"inconclusive: 10 µM [inhibitor, partial curve, poor fit]",
COCCNC(=O)c1c(NC(=O)c2ccco2)n(Cc2ccccc2)c2nc3ccccc3nc12,"inconclusive: 35.5 µM [inhibitor, partial curve, poor fit]",
O=C(Cn1cc(C=C2C(=O)NC(=O)NC2=O)c2ccccc21)NCC1CCCO1 (stereo unspecified),"inconclusive: 11.2 µM [inhibitor, partial curve, poor fit]",
COc1ccc(C2NCc3ccc4c(c3-n3cccc32)OCO4)cc1O (stereo unspecified),"inconclusive: 0.794 µM [inhibitor, full curve, poor fit]",
Cc1c(OC(C(=O)O)c2ccccc2)ccc2c1oc(=O)c1ccccc12 (stereo unspecified),"inconclusive: 63.1 µM [inhibitor, single point]",

# Fetched by compound from above, two records:
SMILES,Potency,"activity, negative = inhibition"
CC1(C)OC(c2ccccc2)=C/C(=C/C=C2C(=O)NC(=O)NC2=O)O1,"inconclusive: 39.8 µM [inhibitor, partial curve, poor fit]",
O=C(/C=C/c1c[nH]c2ccccc12)c1c(O)n(CCc2ccccc2)c(=O)[nH]c1=O,,inactive: 9.71%
